Test system: mSWI/SNF complexes
Assay: mSWI/SNF complex purification with HA-tagged baits and mass spectrometry (peptide counts)
Set-up: species or system human
Conditions: 293_HA-BRD7 bait purification, mass spectrometry; for Total: total peptide count per identified protein; for Unique: unique peptide count per identified protein

| Molecule | Total | Unique |
| --- | --- | --- |
| FECH (protein, UniProt P22830 55-423, looked up) Ferrochelatase, mitochondrial: GAKPQVQPQKRKPKTGILMLNMGGPETLGDVHDFLLRLFLDRDLMTLPIQNKLAPFIAKRRTPKIQEQYRRIGGGSPIKIWTSKQGEGMVKLLDELSPNTAPHKYYIGFRYVHPLTEEAIEEMERDGLERAIAFTQYPQYSCSTTGSSLNAIYRYYNQVGRKPTMKWSTIDRWPTHHLLIQCFADHILKELDHFPLEKRSEVVILFSAHSLPMSVVNRGDPYPQEVSATVQKVMERLEYCNPYRLVWQSKVGPMPWLGPQTDESIKGLCERGRKNILLVPIAFTSDHIETLYELDIEYSQVLAKECGVENIRRAESLNGNPLFSKALADLVHSHIQSNELCSKQLTLSCPLCVNPVCRETKSFFTSQQL | 1 | 1 |
| ORC3 (protein, UniProt Q9UBD5 1-711, looked up) Origin recognition complex …: MATSSMSKGCFVFKPNSKKRKISLPIEDYFNKGKNEPEDSKLRFETYQLIWQQMKSENERLQEELNKNLFDNLIEFLQKSHSGFQKNSRDLGGQIKLREIPTAALVLGVNVTDHDLTFGSLTEALQNNVTPYVVSLQAKDCPDMKHFLQKLISQLMDCCVDIKSKEEESVHVTQRKTHYSMDSLSSWYMTVTQKTDPKMLSKKRTTSSQWQSPPVVVILKDMESFATKVLQDFIIISSQHLHEFPLILIFGIATSPIIIHRLLPHAVSSLLCIELFQSLSCKEHLTTVLDKLLLTTQFPFKINEKVLQVLTNIFLYHDFSVQNFIKGLQLSLLEHFYSQPLSVLCCNLPEAKRRINFLSNNQCENIRRLPSFRRYVEKQASEKQVALLTNERYLKEETQLLLENLHVYHMNYFLVLRCLHKFTSSLPKYPLGRQIRELYCTCLEKNIWDSEEYASVLQLLRMLAKDELMTILEKCFKVFKSYCENHLGSTAKRIEEFLAQFQSLDETKEEEDASGSQPKGLQKTDLYHLQKSLLEMKELRRSKKQTKFEVLRENVVNFIDCLVREYLLPPETQPLHEVVYFSAAHALREHLNAAPRIALHTALNNPYYYLKNEALKSEEGCIPNIAPDICIAYKLHLECSRLINLVDWSEAFATVVTAAEKMDANSATSEEMNEIIHARFIRAVSELELLGFIKPTKQKTDHVARLTWGGC | 1 | 1 |
| ABCD3 (protein, UniProt P28288 1-659, looked up) ATP-binding cassette …: MAAFSKYLTARNSSLAGAAFLLLCLLHKRRRALGLHGKKSGKPPLQNNEKEGKKERAVVDKVFFSRLIQILKIMVPRTFCKETGYLVLIAVMLVSRTYCDVWMIQNGTLIESGIIGRSRKDFKRYLLNFIAAMPLISLVNNFLKYGLNELKLCFRVRLTKYLYEEYLQAFTYYKMGNLDNRIANPDQLLTQDVEKFCNSVVDLYSNLSKPFLDIVLYIFKLTSAIGAQGPASMMAYLVVSGLFLTRLRRPIGKMTITEQKYEGEYRYVNSRLITNSEEIAFYNGNKREKQTVHSVFRKLVEHLHNFILFRFSMGFIDSIIAKYLATVVGYLVVSRPFLDLSHPRHLKSTHSELLEDYYQSGRMLLRMSQALGRIVLAGREMTRLAGFTARITELMQVLKDLNHGKYERTMVSQQEKGIEGVQVIPLIPGAGEIIIADNIIKFDHVPLATPNGDVLIRDLNFEVRSGANVLICGPNGCGKSSLFRVLGELWPLFGGRLTKPERGKLFYVPQRPYMTLGTLRDQVIYPDGREDQKRKGISDLVLKEYLDNVQLGHILEREGGWDSVQDWMDVLSGGEKQRMAMARLFYHKPQFAILDECTSAVSVDVEGYIYSHCRKVGITLFTVSHRKSLWKHHEYYLHMDGRGNYEFKQITEDTVEFGS | 1 | 1 |
| CHP1 (protein, UniProt Q99653 2-195, looked up) Calcineurin B homologous …: GSRASTLLRDEELEEIKKETGFSHSQITRLYSRFTSLDKGENGTLSREDFQRIPELAINPLGDRIINAFFPEGEDQVNFRGFMRTLAHFRPIEDNEKSKDVNGPEPLNSRSNKLHFAFRLYDLDKDEKISRDELLQVLRMMVGVNISDEQLGSIADRTIQEADQDGDSAISFTEFVKVLEKVDVEQKMSIRFLH | 1 | 1 |
| NSUN5 (protein, UniProt Q96P11 2-429, looked up) 28S rRNA …: GLYAAAAGVLAGVESRQGSIKGLVYSSNFQNVKQLYALVCETQRYSAVLDAVIASAGLLRAEKKLRPHLAKVLVYELLLGKGFRGGGGRWKALLGRHQARLKAELARLKVHRGVSRNEDLLEVGSRPGPASQLPRFVRVNTLKTCSDDVVDYFKRQGFSYQGRASSLDDLRALKGKHFLLDPLMPELLVFPAQTDLHEHPLYRAGHLILQDRASCLPAMLLDPPPGSHVIDACAAPGNKTSHLAALLKNQGKIFAFDLDAKRLASMATLLARAGVSCCELAEEDFLAVSPSDPRYHEVHYILLDPSCSGSGMPSRQLEEPGAGTPSPVRLHALAGFQQRALCHALTFPSLQRLVYSTCSLCQEENEDVVRDALQQNPGAFRLAPALPAWPHRGLSTFPGAEHCLRASPETTLSSGFFVAVIERVEVPR | 1 | 1 |
| SCAF8 (protein, UniProt Q9UPN6 1-1271, looked up) SR-related and CTD-associated …: MEAVKTFNSELYSLNDYKPPISKAKMTQITKAAIKAIKFYKHVVQSVEKFIQKCKPEYKVPGLYVIDSIVRQSRHQFGQEKDVFAPRFSNNIISTFQNLYRCPGDDKSKIVRVLNLWQKNNVFKSEIIQPLLDMAAGIPPPVVTPVLASTTTAMSNTPGTPVTPVTPANVVQGLPDPWVSQITNTDTLAAVAQILQSPQGQQLQQLIQTLQIQQQKPQPSILQALDAGLVVQLQALTAQLTAAAAAANTLTPLEQGVSFNKKLMDRFDFGEDSEHSEEPKKEIPASQLSHVSESVNNSIFHQIAEQLQQQNLEHLRQQLLEQQQPQKATPQDSQEGTFGSEHSASPSQGSSQQHFLEPEVNLDDSIDIQQQDMDIDEGQDGVEEEVFEQEAKKVAVRSRSRTHSRSRSRSPRKRRSRSRSGSRKRKHRKRSRSRSRERKRKSSRSYSSERRAREREKERQKKGLPPIRSKTLSVCSTTLWVGQVDKKATQQDLTNLFEEFGQIESINMIPPRGCAYVCMVHRQDAFRALQKLSSGSYKIGSKVIKIAWALNKGVKTEYKQFWDVDLGVTYIPWEKVKVDDLEGFAEGGMIDQETVNTEWETVKSSEPVKETVQTTQSPTPVEKETVVTTQAEVFPPPVAMLQIPVAPAVPTVSLVPPAFPVSMPVPPPGFSPIPPPPFLRASFNPSQPPPGFMPPPVPPPVVPPPTIPPVVPTSLVQPSLSMTPETVKDVGFGSLVIPGGSVASNLATSALPAGNVFNAPTKQAEPEEKVPHLIDHQISSGENTRSVIPNDISSNAAILGGQPPNVTSNSGILGVQRPNVSSNSEILGVRPSNVSSSSGIIAAQPPNILNNSGILGIQPPSVSNSSGLLGVLPPNIPNNSGLVGVQPPNVPNTPGLLGTQPPAGPQNLPPLSIPNQRMPTMPMLDIRPGLIPQAPGPRFPLIQPGIPPQRGIPPPSVLDSALHPPPRGPFPPGDIFSQPERPFLAPGRQSVDNVTNPEKRIPLGNDNIQQEGDRDYRFPPIETRESISRPPPVDVRDVVGRPIDPREGPGRPPLDGRDHFGRPPVDIRENLVRPGIDHLGRRDHFGFNPEKPWGHRGDFDEREHRVLPVYGGPKGLHEERGRFRSGNYRFDPRSGPWNRGFGQEVHRDFDDRRRPWERQRDRDDRDFDFCREMNGNRLGRDRIQNTWVPPPHARVFDYFEGATSQRKGDNVPQVNGENTERHAQPPPIPVQNDPELYEKLTSSNEINKEKSDTVADIESEPVVESTETEGT | 1 | 1 |
| RRP15 (protein, UniProt Q9Y3B9 2-282, looked up) RRP15-like protein: AAAAPDSRVSEEENLKKTPKKKMKMVTGAVASVLEDEATDTSDSEGSCGSEKDHFYSDDDAIEADSEGDAEPCDKENENDGESSVGTNMGWADAMAKVLNKKTPESKPTILVKNKKLEKEKEKLKQERLEKIKQRDKRLEWEMMCRVKPDVVQDKETERNLQRIATRGVVQLFNAVQKHQKNVDEKVKEAGSSMRKRAKLISTVSKKDFISVLRGMDGSTNETASSRKKPKAKQTEVKSEEGPGWTILRDDFMMGASMKDWDKESDGPDDSRPESASDSDT | 1 | 1 |
| FKBP8 (protein, UniProt Q14318 1-412, looked up) Peptidyl-prolyl cis-trans …: MASCAEPSEPSAPLPAGVPPLEDFEVLDGVEDAEGEEEEEEEEEEEDDLSELPPLEDMGQPPAEEAEQPGALAREFLAAMEPEPAPAPAPEEWLDILGNGLLRKKTLVPGPPGSSRPVKGQVVTVHLQTSLENGTRVQEEPELVFTLGDCDVIQALDLSVPLMDVGETAMVTADSKYCYGPQGRSPYIPPHAALCLEVTLKTAVDGPDLEMLTGQERVALANRKRECGNAHYQRADFVLAANSYDLAIKAITSSAKVDMTFEEEAQLLQLKVKCLNNLAASQLKLDHYRAALRSCSLVLEHQPDNIKALFRKGKVLAQQGEYSEAIPILRAALKLEPSNKTIHAELSKLVKKHAAQRSTETALYRKMLGNPSRLPAKCPGKGAWSIPWKWLFGATAVALGGVALSVVIAARN | 1 | 1 |
| KRT78 (protein, UniProt Q8N1N4 1-520, looked up) Keratin, type II cytoskeletal …: MSLSPCRAQRGFSARSACSARSRGRSRGGFSSRGGFSSRSLNSFGGCLEGSRGSTWGSGGRLGVRFGEWSGGPGLSLCPPGGIQEVTINQNLLTPLKIEIDPQFQVVRTQETQEIRTLNNQFASFIDKVRFLEQQNKVLETKWHLLQQQGLSGSQQGLEPVFEACLDQLRKQLEQLQGERGALDAELKACRDQEEEYKSKYEEEAHRRATLENDFVVLKKDVDGVFLSKMELEGKLEALREYLYFLKHLNEEELGQLQTQASDTSVVLSMDNNRYLDFSSIITEVRARYEEIARSSKAEAEALYQTKYQELQVSAQLHGDRMQETKVQISQLHQEIQRLQSQTENLKKQNASLQAAITDAEQRGELALKDAQAKVDELEAALRMAKQNLARLLCEYQELTSTKLSLDVEIATYRRLLEGEECRMSGECTSQVTISSVGGSAVMSGGVGGGLGSTCGLGSGKGSPGSCCTSIVTGGSNIILGSGKDPVLDSCSVSGSSAGSSCHTILKKTVESSLKTSITY | 1 | 1 |
| DDX3Y (protein, UniProt O15523 2-660, looked up) ATP-dependent RNA helicase …: SHVVVKNDPELDQQLANLDLNSEKQSGGASTASKGRYIPPHLRNREASKGFHDKDSSGWSCSKDKDAYSSFGSRDSRGKPGYFSERGSGSRGRFDDRGRSDYDGIGNRERPGFGRFERSGHSRWCDKSVEDDWSKPLPPSERLEQELFSGGNTGINFEKYDDIPVEATGSNCPPHIENFSDIDMGEIIMGNIELTRYTRPTPVQKHAIPIIKGKRDLMACAQTGSGKTAAFLLPILSQIYTDGPGEALKAVKENGRYGRRKQYPISLVLAPTRELAVQIYEEARKFSYRSRVRPCVVYGGADIGQQIRDLERGCHLLVATPGRLVDMMERGKIGLDFCKYLVLDEADRMLDMGFEPQIRRIVEQDTMPPKGVRHTMMFSATFPKEIQMLARDFLDEYIFLAVGRVGSTSENITQKVVWVEDLDKRSFLLDILGATGSDSLTLVFVETKKGADSLEDFLYHEGYACTSIHGDRSQRDREEALHQFRSGKSPILVATAVAARGLDISNVRHVINFDLPSDIEEYVHRIGRTGRVGNLGLATSFFNEKNMNITKDLLDLLVEAKQEVPSWLENMAYEHHYKGGSRGRSKSNRFSGGFGARDYRQSSGSSSSGFGASRGSSSRSGGGGYGNSRGFGGGGYGGFYNSDGYGGNYNSQGVDWWGN | 1 | 1 |
